From PubChem BioAssay AID2551 (National Center for Advancing Translational Sciences (NCATS), 2010)
Several values for one entry are separate records, joined by “and”; a condition that tells them apart may be missing. Identical values can stand only once. The campaign covered roughly 310,000 compounds. About 17,000 (5.5%) were called active. The inconclusive results got no clear call from the source; some entries with a clear call stand among them for comparison. Calls come from the whole dose curve; as a rule, active = well fitted inhibition curve with a large enough effect; inconclusive = small, poorly fitted or top-dose-only effect, or effect the other way; inactive = no such curve, though single readings can be large or run the other way. Potencies of inconclusive entries are doubtful fits and often do not repeat.
% is set by controls: 0 for no effect and ±100 for the full control effect; potency is the fitted concentration of half-maximal effect.
Note: nearly all actives have a fitted effect of over 60% in size.

Amino acid sequences for entries named in this document (tags omitted). A change or cut given only in a name is not applied to a line headed by its entry.
UniProt P51450: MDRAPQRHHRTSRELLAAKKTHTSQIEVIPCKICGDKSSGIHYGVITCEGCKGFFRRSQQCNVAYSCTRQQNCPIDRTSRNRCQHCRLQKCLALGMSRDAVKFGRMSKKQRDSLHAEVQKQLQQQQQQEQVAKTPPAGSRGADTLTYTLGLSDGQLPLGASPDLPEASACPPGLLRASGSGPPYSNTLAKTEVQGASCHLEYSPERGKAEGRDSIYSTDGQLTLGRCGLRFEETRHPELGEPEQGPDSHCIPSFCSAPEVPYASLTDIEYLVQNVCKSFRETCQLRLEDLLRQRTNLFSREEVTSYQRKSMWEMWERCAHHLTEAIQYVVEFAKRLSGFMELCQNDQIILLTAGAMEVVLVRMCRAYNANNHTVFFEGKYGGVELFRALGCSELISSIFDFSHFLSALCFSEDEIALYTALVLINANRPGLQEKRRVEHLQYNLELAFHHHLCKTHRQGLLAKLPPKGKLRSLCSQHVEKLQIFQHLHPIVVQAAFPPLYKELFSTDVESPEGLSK

These molecules were tested against Nuclear receptor ROR-gamma (Mus musculus) (UniProt P51450) (assay: qHTS for inhibitors of ROR gamma transcriptional activity). Details: Drosophila S2 Gal4-RORgamma UAS-luciferase reporter, 20 h; activity change, negative = inhibition: at 53.6 µM (top of the series).
How it was run: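 Stably transfected Drosophila Schneider cells are the test system, with ROR gamma fused to Gal4 and luciferase under UAS control; luminescence is read after 20 hr of 700 uM copper sulfate induction at ambient temperature.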
For `COC(=O)c1ccccc1NC(=O)CN1CCN(c2ccccn2)CC1`, the “activity change, negative = inhibition” value was inactive: 5.17%.
With `S=C(NC1CC1)N1CCc2ccccc2C1` the Potency was inconclusive: 12.6 µM [inhibitor, single point].
`COC(=O)CCCC(=O)N1CCC(CCC(=O)NCc2ccc(F)cc2)CC1` was tested, and the “activity change, negative = inhibition” value was inactive: -29%.
With `CCS(=O)(=O)Nc1ccc(-c2nc3cccnc3s2)cc1` the Potency was inconclusive: 35.5 µM [inhibitor, single point].
In the case of `O=C(NC(=S)NC1C2CC3CC(C2)CC1C3)C12CC3CC(CC(C3)C1)C2` (configuration not stated), the Potency is reported as active: 1 µM.
`COc1ccc(OC2C(=O)N(c3ccc(F)cc3)C2c2ccc(OC)c(OC)c2)cc1` (configuration not stated) was tested, and the “activity change, negative = inhibition” value was inactive: 2.97%.
In the case of `CC1CCN(CC(O)COC2CCC(C(C)(C)C)CC2)CC1` (configuration not stated), the “activity change, negative = inhibition” value is reported as inactive: 11.2%.
With `O=C(Nc1cccc(F)c1)N1CCC2(CCNCC2)CC1` the “activity change, negative = inhibition” value was inactive: 2.93%.
For `CCN1C(=O)N[C@H](c2ccc(Br)cc2)C(C(C)=O)=C1C`, the Potency was “inactive and inconclusive: 5.62 µM [activator, single point]”.
With `S=c1[nH]nc(-c2cc3ccccc3o2)n1Cc1ccccc1` the Potency was active: 0.631 µM.
For `O=C(C1CCC1)N1CCc2cc(S(=O)(=O)NCc3cccnc3)ccc21`, the Potency was inconclusive: 22.4 µM [activator, single point].
`CCOC(=O)C1=C(c2ccccc2)NC(=O)NC1c1cc(OC)c(OC)cc1OC` (configuration not stated) was tested, and the “activity change, negative = inhibition” value was inactive: 2.42%.
With `COc1ccc(Cl)cc1NC(=O)CN(C)CC(=O)Nc1ccc(C)cc1Br` the “activity change, negative = inhibition” value was inactive: 11.9%.
In the case of `CC(=O)c1c(C)[nH]c(C(=O)OCc2ccc([N+](=O)[O-])cc2)c1C`, the Potency is reported as inconclusive: 14.1 µM [activator, partial curve].
With `O=[N+]([O-])c1cccc(C=Nc2cccc3ccccc23)c1O` the Potency was active: 1.58 µM.
`CC(C)Cn1c(N)c(C(=O)COC(=O)CC23CC4CC(CC(C4)C2)C3)c(=O)n(C)c1=O` was tested, and the “activity change, negative = inhibition” value was inactive: 13.5%.
`CC(c1ccccc1)N1CCn2c(nc3cc(NS(C)(=O)=O)ccc32)C1` (configuration not stated) was tested, and the “activity change, negative = inhibition” value was inactive: 7.23%.
In the case of `O=C(C(=S)N1CCOCC1)c1c[nH]c2ccccc12`, the “activity change, negative = inhibition” value is reported as inactive: 9.01%.
In the case of `O=C(NOC(=O)c1ccccc1)c1ccccc1`, the “activity change, negative = inhibition” value is reported as inactive: 20.1%.
For `COc1ccc(Cl)cc1NS(=O)(=O)c1cccc2cccnc12`, the Potency was inconclusive: 17.8 µM [inhibitor, single point].
`O=C(Nc1cccnc1)OCc1ccccc1` was tested, and the Potency was inconclusive: 2.82 µM [activator, single point].
With `CCOc1ccc(NC(=S)NCc2ccc3c(c2)OCO3)cc1` the Potency was active: 7.94 µM.
For `CC1CN(C(=O)c2cccc(COc3ccc(Br)cc3)c2)CC(C)O1` (configuration not stated), the Potency was inconclusive: 11.2 µM [activator, partial curve].
With `COc1ccc(C(=O)N2CCC(C(=O)NCc3ccccn3)CC2)cc1` the “activity change, negative = inhibition” value was inactive: 30.2%.
In the case of `CC(C)(C)n1ncc2c(=O)n(CC(=O)Nc3ccc(Cl)cc3)cnc21`, the “activity change, negative = inhibition” value is reported as inactive: 41.4%.
For `O=C(NCc1ccc2c(c1)OCO2)c1ccc(CSCc2ccccc2Cl)o1`, the “activity change, negative = inhibition” value was inactive: 20.8%.
In the case of `CC(C)CCNC(=O)Cc1ccccc1[N+](=O)[O-]`, the Potency is reported as inconclusive: 12.6 µM [activator, partial curve, poor fit].
With `O=C(c1cccs1)N1CCCC(c2nc(-c3ccc(F)cc3)no2)C1` (configuration not stated) the Potency was inconclusive: 10 µM [activator, partial curve].
`COc1ccccc1C(=O)NNC(=O)C(=O)NCc1ccccc1` was tested, and the Potency was inconclusive: 35.5 µM [inhibitor, single point].
With `O=C1/C(=C\Nc2ccccc2)CCN1c1ncccn1` the Potency was inconclusive: 1.26 µM [activator, full curve].
For `CCOC(=O)N1CCC(N(CCN(C)C)C(=S)Nc2cccc(OC)c2)CC1`, the Potency was inconclusive: 11.2 µM [inhibitor, partial curve].
For `O=C(N/N=C/C(Br)=C/c1ccccc1)C(O)c1ccccc1` (configuration not stated), the Potency was inconclusive: 35.5 µM [inhibitor, single point].
`COCCOC(=O)C1=C(C)OC(N)=C(C#N)C1c1cc2cccc(C)c2nc1Cl` (configuration not stated) was tested, and the Potency was inconclusive: 1.78 µM [activator, partial curve].
For `Oc1ccc(-c2onc(C(F)(F)F)c2-c2cscn2)c(O)c1`, the Potency was inconclusive: 31.6 µM [activator, single point].
For `Cc1ccc(-c2noc(C3CCCN(C(=O)c4c(F)cccc4F)C3)n2)cc1` (configuration not stated), the Potency was inconclusive: 31.6 µM [activator, single point].
With `Cc1ccc2c(CN(C)Cc3cccc(F)c3)cc(=O)oc2c1C` the “activity change, negative = inhibition” value was inactive: 16.9%.
With `COc1ccc(N2CCN(c3ccc(N4C(=O)CC(C)C4=O)cc3[N+](=O)[O-])CC2)cc1` (configuration not stated) the Potency was inconclusive: 31.6 µM [inhibitor, single point].
In the case of `Cc1ccc(C(=O)NC(=S)Nc2ccccc2C(F)(F)F)cc1`, the Potency is reported as active: 4.47 µM.
`CCC1N=C(SC)NC(C)=C1C(=O)c1ccccc1` (configuration not stated) was tested, and the “activity change, negative = inhibition” value was inactive: 5.06%.
In the case of `Cc1c(C(=O)OC2CCCC2C)[nH]c2c1C(=O)CCC2` (configuration not stated), the Potency is reported as inconclusive: 25.1 µM [activator, single point].
`S=C(NC1CCCCC1)N1CCN(Cc2ccccc2Cl)CC1` was tested, and the Potency was inconclusive: 20 µM [inhibitor, single point].
For `C=CCn1c(SCc2c(C)noc2C)nc2ccccc2c1=O`, the Potency was inconclusive: 11.2 µM [inhibitor, partial curve].
In the case of `O=C1CC(c2ccccc2)CC(O)=C1C=Nc1ccccc1` (configuration not stated), the “activity change, negative = inhibition” value is reported as inactive: 17.6%.
In the case of `COc1ccc(Nc2nc(-c3ccccc3)nc3ccccc23)c(OC)c1`, the “activity change, negative = inhibition” value is reported as inactive: -17.4%.
With `O=C(Nc1ccc(Cn2cccn2)cc1)c1ccc(COc2ccccc2Br)cc1` the Potency was inconclusive: 12.6 µM [activator, single point].
`O=c1nc(N/N=C/c2c[nH]c3ccccc23)cn[nH]1` was tested, and the Potency was inconclusive: 11.2 µM [inhibitor, single point].
In the case of `O=C(CCN1C(=O)/C(=C/c2ccccc2)SC1=S)N1CCCCCC1`, the Potency is reported as inconclusive: 25.1 µM [inhibitor, single point].
`CCOC(=O)C(C(=O)OCC)C1N=C(N)N=C2Oc3ccccc3N21` (configuration not stated) was tested, and the Potency was inconclusive: 6.31 µM [inhibitor, single point].
`Cc1ccc2c(c1)N(S(=O)(=O)c1ccc(CN3C(=O)c4cccnc4C3=O)cc1)CCO2` was tested, and the “activity change, negative = inhibition” value was inactive: 2.22%.
`c1ccc(CSc2nnc(-c3ccccn3)n2-c2ccccc2)cc1` was tested, and the Potency was inconclusive: 17.8 µM [inhibitor, single point].
`COCCNc1nc(-c2ccc(N(C)C)cc2)nc2ccccc12` was tested, and the Potency was inconclusive: 35.5 µM [inhibitor, single point].
For `COc1cc2[nH]c(=S)nc(NCc3ccccc3)c2cc1OC`, the Potency was active: 7.08 µM.
For `CN(C)c1ccc(N=Nc2cccc(F)c2)cc1`, the Potency was inconclusive: 22.4 µM [inhibitor, single point].
`CCCN(CC(=O)Nc1ccc(F)c(F)c1F)CC(=O)Nc1c(Cl)cccc1Cl` was tested, and the Potency was inconclusive: 22.4 µM [activator, single point].
For `O=C(C1CCN(c2ccc(N3CCOCC3)nn2)CC1)N1CCN(c2ccc(F)cc2)CC1`, the “activity change, negative = inhibition” value was inactive: 13.6%.
With `O=C1CC(N2CCN(c3ccccc3)CC2)C(=O)N1Cc1ccc(Cl)cc1` (configuration not stated) the Potency was inconclusive: 22.4 µM [activator, partial curve, poor fit].
In the case of `CC(=O)C1=C(O)C(=O)N(CCC(=O)O)C1c1ccc(Cl)cc1Cl` (configuration not stated), the “activity change, negative = inhibition” value is reported as inactive: -0.799%.
`COc1cc(/C=N/Nc2nc3ccccc3[nH]2)cc(Br)c1OCC(=O)N(C)C` was tested, and the Potency was inconclusive: 22.4 µM [inhibitor, single point].
`C=CCC1(NCc2ccco2)CCN(CC)CC1` was tested, and the “activity change, negative = inhibition” value was inactive: -2%.
For `COc1cc(O)c(NC(C)=O)c2nonc12`, the “activity change, negative = inhibition” value was inactive: -7.09%.
With `CCOc1ccc(NC(=S)N(CCOC)C(C)c2cccnc2)cc1` (configuration not stated) the Potency was active: 11.2 µM.
In the case of `CC(=O)c1c(Nc2ccccc2)sc(C(=O)c2ccccc2)c1C`, the Potency is reported as inconclusive: 15.8 µM [activator, partial curve].
In the case of `COc1ccc(C2CC(c3cccs3)=NN2C(=O)CCl)cc1OC` (configuration not stated), the Potency is reported as inconclusive: 20 µM [inhibitor, partial curve, poor fit].
In the case of `COC(=O)Cn1c(CN(Cc2ccccc2)Cc2ccccc2)nc2c1c(=O)[nH]c(=O)n2C`, the “activity change, negative = inhibition” value is reported as inactive: 17.3%.
For `CCOc1ccc2c(c1)c(N=Nc1cccc(C(=O)O)c1)c(O)n2C`, the Potency was inconclusive: 0.282 µM [activator, full curve, poor fit].
For `CCCCn1c(SCc2ccccn2)nc2c1c(=O)n(C)c(=O)n2C`, the Potency was inconclusive: 0.251 µM [activator, full curve, poor fit].
With `CC(=O)c1ccc(N2CCN(C(=O)COc3ccccc3F)CC2)c(F)c1` the Potency was inconclusive: 12.6 µM [activator, single point].
With `COc1ccc(-c2noc(C3CCCN(C(=O)c4ccccc4)C3)n2)cc1` (configuration not stated) the “activity change, negative = inhibition” value was inactive: 40.3%.
With `Brc1ccc(OCc2nnnn2-c2ccccc2)cc1` the Potency was inconclusive: 17.8 µM [activator, single point].
For `CCNc1nc(NCC)nc(N(C)/N=C/c2ccco2)n1`, the Potency was active: 3.55 µM.
In the case of `CCOc1cc(/C=N/Nc2nc(Nc3ccccc3)nc(N3CCCCC3)n2)ccc1OCC(=O)O`, the Potency is reported as active: 4.47 µM.
`NC(=O)C(=O)N/N=C/c1c2ccccc2cc2ccccc12` was tested, and the Potency was inconclusive: 7.94 µM [inhibitor, partial curve].
In the case of `O=C(CN(CCO)c1ccccc1)NC12CC3CC(CC(C3)C1)C2`, the Potency is reported as inconclusive: 11.2 µM [activator, partial curve].
For `CCc1ccccc1NC(=S)Nc1cc(OC)c(NC(=O)C(C)C)cc1OC`, the activity change, negative = inhibition was inactive: -14.6% [at 1.91 µM].
In the case of `O=C(COC(=O)c1ccccc1O)NCCCc1ccccc1`, the “activity change, negative = inhibition” value is reported as inactive: 5.33%.
For `O=C(NCCOc1ccccc1Cl)C(=O)NCCOc1ccccc1Cl`, the “activity change, negative = inhibition” value was inactive: -8.76%.
In the case of `Cc1sc2nc(CN(C(=O)NC3CCCCC3)C3CCCC3)[nH]c(=O)c2c1C`, the Potency is reported as active: 8.91 µM.
